Laboratory results from PubChem BioAssay AID504834 (National Center for Advancing Translational Sciences (NCATS), 2011).
In all, about 320,000 compounds went through this assay and about 22,000 (6.9%) were called active. The shares of active, inactive and inconclusive entries below differ from those in the screen. Calls come from the whole dose curve; as a rule, active = well fitted inhibition curve with a large enough effect; inconclusive = small, poorly fitted or top-dose-only effect, or another doubt; inactive = no such curve, though single readings can be large or run the other way. Potencies of inconclusive entries are doubtful fits and often do not repeat.

test: Primary qHTS for delayed death inhibitors of the malarial parasite plastid, 96 hour incubation; conditions: P. falciparum luciferase reporter growth; series mostly up to 28.7 µM; activity change, negative = inhibition: at the top concentration
Procedure, shortened: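 Plates of compound plus infected erythrocytes (2% hematocrit, 0.05% parasitemia final) incubate 96 hours, 37 C, 5% CO2. Detection reagent added; reduced luminescence from the parasites' luciferase reporter flags inhibition.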
% is set by controls: 0 for no effect and ±100 for the full control effect; potency is the fitted concentration of half-maximal effect.

| SMILES | activity change, negative = inhibition | Potency |
| --- | --- | --- |
| CCn1ncc(CNC(=O)c2cccc([N+](=O)[O-])c2)c1C | inactive: 3.04% |  |
| COc1ccccc1/C=C1/C(=O)ON=C1C |  | inconclusive: 4.65 µM [inhibitor, partial curve, poor fit] |
| O=C(Nc1ccc(N2CCOCC2)cc1)c1ccc2c(c1)OCO2 |  | inconclusive: 13.1 µM [inhibitor, partial curve] |
| CCC(=O)Nc1nc2n(n1)C(c1ccc(OC)cc1)C=C(c1ccccc1)N2 (configuration not stated) |  | inconclusive: 20.8 µM [inhibitor, partial curve, poor fit] |
| O=C(Nc1nnc(-c2ccncc2)o1)c1ccc(Br)s1 |  | inconclusive: 18.5 µM [inhibitor, single point] |
| COc1ccc2c(c1)[nH]c1c(=O)n(/N=C/c3ccc(OC)c(CN4CCCC4)c3)cnc12 |  | inconclusive: 3.7 µM [inhibitor, full curve] |
| Cc1nn(CC(=O)Nc2cc(S(=O)(=O)N(C)C)ccc2Cl)c(C)c1[N+](=O)[O-] |  | inconclusive: 18.5 µM [inhibitor, single point] |
| O=C(c1ccoc1)N1CCC2(CC1)Oc1ccc(Cl)cc1C(=O)C21CC(c2cccnc2)=NO1 (configuration not stated) |  | inconclusive: 18.5 µM [inhibitor, single point] |
| COc1ccc(N2CCN(C3CCCN(Cc4cccc(C(C)=O)c4)C3)CC2)cc1 (configuration not stated) |  | inconclusive: 3.29 µM [inhibitor, partial curve, poor fit] |
| CCOC(=O)C1CCN(C=C2C(=O)N(C)C(=S)N(C)C2=O)CC1 |  | inconclusive: 13.1 µM [inhibitor, single point] |
| C=CCNC(=O)Nc1ccc2nc(C)sc2c1 |  | inconclusive: 1.47 µM [inhibitor, full curve, poor fit] |
| O=C(CF)NC(NC(=S)Nc1ccccc1O)C(Cl)(Cl)Cl (configuration not stated) | inactive: -21.6% |  |
| O=C(/C=C/Nc1ccccc1C(=O)O)c1cccs1 | inactive: -29.9% |  |
| O=C(Nc1nc2c(s1)CCCC2)c1ccc(N2C(=O)CCC2=O)cc1 | inactive: 51.8% |  |
| CCC1CCc2c(sc(NC(=O)c3cccnc3)c2C(N)=O)C1 (configuration not stated) |  | inconclusive: 20.8 µM [inhibitor, single point] |
| Cc1noc(C)c1CSCC(=O)Nc1cc(S(=O)(=O)N2CCOCC2)ccc1OCC(F)(F)F |  | inconclusive: 11.7 µM [inhibitor, single point] |
| O=C(CCC(=O)N1CCOc2ccccc21)Nc1cc(F)ccc1F |  | inconclusive: 10.4 µM [inhibitor, single point] |
| O=C(O)CN1C(=O)CC(c2ccccc2)CC1=O |  | inconclusive: 11.7 µM [inhibitor, single point] |
| Cc1c(NS(=O)(=O)c2cc(C(=O)NCc3ccco3)cc(Cl)c2Cl)c(=O)n(-c2ccccc2)n1C |  | inconclusive: 10.4 µM [inhibitor, single point] |
| Cc1cc(Cl)c(O)c(-n2nc3ccccc3n2)c1 | inactive: 10.1% |  |
| c1ccc(CN2CCN(CCOCCOc3cccc4ccccc34)CC2)cc1 |  | inconclusive: 18.5 µM [inhibitor, single point] |
| Cc1ccnc2nc(C(=O)Nc3cc(Cl)ccc3N3CCOCC3)nn12 |  | active: 0.233 µM |
| Cc1ccc(-c2cc(-c3ccccc3)no2)c(O)c1 |  | inconclusive: 10.4 µM [inhibitor, single point] |

Reprinted at random: 5 compounds from above

| SMILES | activity change, negative = inhibition | Potency |
| --- | --- | --- |
| CCOC(=O)C1CCN(C=C2C(=O)N(C)C(=S)N(C)C2=O)CC1 |  | inconclusive: 13.1 µM [inhibitor, single point] |
| O=C(Nc1nnc(-c2ccncc2)o1)c1ccc(Br)s1 |  | inconclusive: 18.5 µM [inhibitor, single point] |
| Cc1c(NS(=O)(=O)c2cc(C(=O)NCc3ccco3)cc(Cl)c2Cl)c(=O)n(-c2ccccc2)n1C |  | inconclusive: 10.4 µM [inhibitor, single point] |
| COc1ccc2c(c1)[nH]c1c(=O)n(/N=C/c3ccc(OC)c(CN4CCCC4)c3)cnc12 |  | inconclusive: 3.7 µM [inhibitor, full curve] |
| Cc1ccnc2nc(C(=O)Nc3cc(Cl)ccc3N3CCOCC3)nn12 |  | active: 0.233 µM |

Additional records

| SMILES | activity change, negative = inhibition | Potency |
| --- | --- | --- |
| CC(/C=C1\SC(=S)N(NC(=O)c2ccc(O)cc2)C1=O)=C\c1ccccc1 |  | inconclusive: 7.38 µM [inhibitor, single point] |
| COc1ccc2cc(CN(CC3CCCO3)S(=O)(=O)c3ccc(C(C)=O)cc3)c(=O)[nH]c2c1 (configuration not stated) |  | inconclusive: 18.5 µM [inhibitor, single point] |
| Cc1ccc(CN2CCN(Cc3cnc(N4CCOCC4)s3)CC2CCO)o1 (configuration not stated) | inactive: 29.8% |  |
| CC(C)C[C@H](NC(=O)c1nc[nH]c1C(=O)N1CCN(C(=O)OC(C)(C)C)CC1)C(=O)OCc1ccccc1 |  | inconclusive: 11.7 µM [inhibitor, partial curve] |
| Cc1ccc(S(=O)(=O)NCC(=O)N(CC(=O)NCc2ccco2)Cc2ccc(F)cc2)cc1 |  | inconclusive: 5.22 µM [inhibitor, partial curve] |
| COc1ccc(/C=C/C(=O)NC(=S)N2CCCC(C(N)=O)C2)cc1 (configuration not stated) |  | inconclusive: 18.5 µM [inhibitor, single point] |
| CN(C)c1ccc(SC#N)cc1 |  | active: 2.94 µM |
| COc1ccc(NS(=O)(=O)c2cccc(C(=O)N3CCCCCC3)c2)cc1 | inactive: 1.18% |  |
| COC(=O)c1c(NC(=O)CSc2nnc(-c3ccco3)n2Cc2ccccc2)sc(C)c1C |  | inconclusive: 10.4 µM [inhibitor, single point] |
| C[C@]12C(=O)N(c3ccc(Cl)cc3)C(=O)N1[C@H]1c3ccccc3OC[C@@H]1[C@H]2c1ccccc1 |  | inconclusive: 1.65 µM [inhibitor, partial curve, poor fit] |
| Clc1ccc(CN(Cc2ccccc2)C(c2cccs2)c2nnnn2C2CCCC2)cc1 (configuration not stated) |  | inconclusive: 0.928 µM [inhibitor, partial curve, poor fit] |
| O=C(c1ccc(Br)o1)N(c1ccc(Br)cc1)C1C=CS(=O)(=O)C1 (configuration not stated) |  | inconclusive: 0.415 µM [inhibitor, full curve, poor fit] |
| CCOC(=O)c1c(C)nc2ccc(Cl)cc2c1-c1ccccc1 |  | inconclusive: 1.65 µM [inhibitor, partial curve, poor fit] |
| COc1ccc(C)cc1NC(=O)C(OC(=O)CNC(=O)c1cc(C)cc(C)c1)c1ccccc1 (configuration not stated) | inactive: 19.2% |  |
| CCOC(=O)[C@H]1[C@H]2COc3ccc(C)cc3[C@@H]2N2C(=O)c3cc(F)c(F)cc3NC(=O)[C@@]12C |  | inconclusive: 11.7 µM [inhibitor, single point] |
| COc1ccc(-c2nsc3c(N4CCN(C(=O)c5ccco5)CC4)ncnc23)cc1 |  | inconclusive: 18.5 µM [inhibitor, partial curve, poor fit] |
| Cc1csc(CNC(=O)c2ccc(OC3CCN(CCc4ccccc4)CC3)cc2)n1 | inactive: -34.3% |  |
| O=C(Nc1ccc(Br)cc1)c1ccc(N2C(=O)C3CC=C(Cl)CC3C2=O)cc1 (configuration not stated) | inactive: -13.9% |  |
| CC(CO)NC(=O)C1C=C2c3cccc4[nH]cc(c34)CC2N(C)C1 (configuration not stated) |  | inconclusive: 10.7 µM [inhibitor, single point] |
| Cn1nccc1C(=O)NC1CCCc2c1cnn2-c1ccccc1F (configuration not stated) |  | inconclusive: 9.28 µM [inhibitor, single point] |
| CCC1=C(OC(=O)N(CC)CC)N2C(=O)OC(=NCCOC)[C@]2(Cc2ccccc2)[C@H]2C1=CC[C@H]1C(=O)N(CC)C(=O)[C@H]12 |  | inconclusive: 13.1 µM [inhibitor, single point] |
| COC(=O)c1ccc(/C=N/NC(=O)C2CC(=O)N(c3ccc(F)cc3)C2)cc1 (configuration not stated) |  | inconclusive: 18.5 µM [inhibitor, single point] |
| CCc1ccccc1NC(=S)N(CCN1CCOCC1)Cc1ccccc1F |  | active: 10.4 µM |

| SMILES | activity change, negative = inhibition | Potency |
| --- | --- | --- |
| CC(=O)Nc1ccc(NS(=O)(=O)c2cccc3nonc23)cc1 | inactive: 28.6% |  |
| Cc1cccc(OCCCC(=O)Nc2ccc(N3CCOCC3)cc2)c1 |  | inconclusive: 9.28 µM [inhibitor, single point] |
| Cc1ccccc1C(=O)NNC(=O)CN1C(=O)c2ccccc2C1=O |  | inconclusive: 18.5 µM [inhibitor, single point] |
| CC(C)(CO)N=C1NS(=O)(=O)c2cc([N+](=O)[O-])ccc21 |  | inconclusive: 11.7 µM [inhibitor, partial curve, poor fit] |
| CCOC(=O)CNC(=S)n1cnc(N)n1 | inactive: 53.2% |  |
| Cc1cc(N/N=C2\CC(C)CC(C)(C)C2)nc2ccccc12 (configuration not stated) |  | inconclusive: 11.7 µM [inhibitor, partial curve, poor fit] |
| COc1cccc(-c2nnc(NC(=O)c3ccc4ncsc4c3)o2)c1 |  | active: 13.1 µM |
| CCCCN(CC)CCCNC(=O)c1cn(CC)c2ccc(S(=O)(=O)N3CCc4ccccc4C3)cc2c1=O |  | inconclusive: 2.94 µM [inhibitor, partial curve, poor fit] |
| CCCOc1ccc(C(=O)O)cc1 | inactive: 1.33% |  |
| O=C(Nc1cccc(S(=O)(=O)N2CCCCC2)c1)C1CC(=O)N(Cc2ccccc2)C1 (configuration not stated) |  | inconclusive: 13.1 µM [inhibitor, single point] |
| COc1ccc(-n2c(C)nc3ccccc3c2=O)c([N+](=O)[O-])c1 |  | inconclusive: 7.38 µM [inhibitor, partial curve] |
| CCOc1ccc(N2C(=O)/C(=C/c3ccccc3OCC(=O)OC)N(CC(=O)OC)C2=S)cc1 |  | inconclusive: 10.4 µM [inhibitor, single point] |
| Cc1ccc(C)c(Cn2nc(-c3ccccc3)ccc2=O)c1 | inactive: 5.31% |  |
| Cc1cc(C(=O)NC2CCCC(C)C2C)c2ccccc2n1 (configuration not stated) | inactive: 2.63% |  |
| CCOc1ccc(-n2c(SCC(=O)Nc3ccc(CC)cc3)nc3n[nH]c(C)c3c2=N)cc1 |  | inconclusive: 23.3 µM [inhibitor, partial curve, poor fit] |
| COc1ccc(NC(=O)OC(CN2CCCCC2)C(F)(F)F)cc1 (configuration not stated) | inactive: 40.4% |  |
| COc1ccc2cc(CCNC(=O)CCc3ccccc3)c(=O)[nH]c2c1 |  | inconclusive: 11.7 µM [inhibitor, single point] |
| Cc1ccc(-c2nn(-c3ccccc3)cc2NC(=O)c2ccccc2)cc1 | inactive: -13.8% |  |
| CN(CC(O)COc1c(F)cc(Br)cc1F)C1CCCCC1 (configuration not stated) | inactive: 35.6% |  |
| COc1ccc(C(=O)NCc2ccc(-n3cccc3)cc2)cc1OC |  | inconclusive: 6.57 µM [inhibitor, partial curve, poor fit] |
| Cc1ccc(NC(=S)/C(=C(\[O-])c2ccc(C)c([N+](=O)[O-])c2)[n+]2ccccc2)cc1C | inactive: -93.4% |  |
